Assay results: paper doi:10.1101/2022.07.18.500530
These are yes or no findings as the source states them, for the method shown. For part of these data: Binding seen in cells or lysates may run through a third protein. Some entries that bind do so weakly or less than the wild type. For part of these data: Where a sequence is shown, tags or fusion partners need not be part of it.

By UniProt entry, the sequences of proteins in these tests, tags left out.
UniProt F4K5J1: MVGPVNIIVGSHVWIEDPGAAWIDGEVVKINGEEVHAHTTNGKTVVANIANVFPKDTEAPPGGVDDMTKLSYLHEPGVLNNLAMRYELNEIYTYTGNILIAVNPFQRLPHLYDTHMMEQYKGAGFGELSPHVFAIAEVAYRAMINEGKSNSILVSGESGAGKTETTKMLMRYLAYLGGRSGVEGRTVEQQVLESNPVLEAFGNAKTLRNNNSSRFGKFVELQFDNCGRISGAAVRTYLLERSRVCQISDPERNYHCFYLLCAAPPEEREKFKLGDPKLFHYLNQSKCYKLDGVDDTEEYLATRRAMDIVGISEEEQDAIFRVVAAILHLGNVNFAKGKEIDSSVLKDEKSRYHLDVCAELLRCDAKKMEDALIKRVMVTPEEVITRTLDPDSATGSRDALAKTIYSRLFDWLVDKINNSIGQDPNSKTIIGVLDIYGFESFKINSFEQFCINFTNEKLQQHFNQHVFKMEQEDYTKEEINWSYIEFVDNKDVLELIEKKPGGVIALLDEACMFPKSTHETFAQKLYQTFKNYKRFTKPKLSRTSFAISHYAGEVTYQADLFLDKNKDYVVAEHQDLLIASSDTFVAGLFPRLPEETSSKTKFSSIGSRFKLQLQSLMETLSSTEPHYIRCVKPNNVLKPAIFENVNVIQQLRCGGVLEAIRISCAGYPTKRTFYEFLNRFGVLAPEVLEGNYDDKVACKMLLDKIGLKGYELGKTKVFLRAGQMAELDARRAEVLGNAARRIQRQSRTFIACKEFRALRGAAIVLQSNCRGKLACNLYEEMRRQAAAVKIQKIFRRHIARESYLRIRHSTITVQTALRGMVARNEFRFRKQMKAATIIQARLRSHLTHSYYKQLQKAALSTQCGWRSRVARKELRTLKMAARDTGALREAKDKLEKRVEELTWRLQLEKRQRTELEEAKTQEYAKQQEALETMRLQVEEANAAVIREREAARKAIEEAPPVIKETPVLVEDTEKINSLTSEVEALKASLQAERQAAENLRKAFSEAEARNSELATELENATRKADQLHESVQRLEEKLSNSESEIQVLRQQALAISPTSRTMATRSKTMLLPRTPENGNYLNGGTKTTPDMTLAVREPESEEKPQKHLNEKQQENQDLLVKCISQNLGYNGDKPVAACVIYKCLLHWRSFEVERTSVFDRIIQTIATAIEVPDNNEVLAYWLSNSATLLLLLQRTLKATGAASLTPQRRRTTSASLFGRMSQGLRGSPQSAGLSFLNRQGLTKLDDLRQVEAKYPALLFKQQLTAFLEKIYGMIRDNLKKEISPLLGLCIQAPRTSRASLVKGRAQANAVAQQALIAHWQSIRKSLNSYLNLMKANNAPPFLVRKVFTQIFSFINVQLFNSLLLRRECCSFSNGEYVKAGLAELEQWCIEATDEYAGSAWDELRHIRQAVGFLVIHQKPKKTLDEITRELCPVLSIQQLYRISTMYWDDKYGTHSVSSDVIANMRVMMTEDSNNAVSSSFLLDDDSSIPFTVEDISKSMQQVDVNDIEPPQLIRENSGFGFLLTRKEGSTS

Legend:
[1] = molecular target: T1, TWISTED DWARF1 (TWD1), purified protein (Arabidopsis) (UniProt Q9LDC0); test: pull-down
T1 sequence: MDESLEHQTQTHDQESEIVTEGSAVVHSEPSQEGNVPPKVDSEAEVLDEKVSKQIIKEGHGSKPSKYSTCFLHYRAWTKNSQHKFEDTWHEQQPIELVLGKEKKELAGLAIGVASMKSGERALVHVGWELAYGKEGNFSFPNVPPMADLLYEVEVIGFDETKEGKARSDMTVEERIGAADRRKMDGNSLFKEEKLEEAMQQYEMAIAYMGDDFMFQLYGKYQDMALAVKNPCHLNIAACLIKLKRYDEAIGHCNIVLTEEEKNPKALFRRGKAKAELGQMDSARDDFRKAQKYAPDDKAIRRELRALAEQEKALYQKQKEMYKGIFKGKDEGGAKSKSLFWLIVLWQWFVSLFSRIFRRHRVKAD

[2] = molecular target: T2, TWD1 fused to Renilla luciferase (TWD1-Rluc) (Arabidopsis) (UniProt Q9LDC0); test: FRET or BRET
T2 sequence: T1 sequence

| Substance | binding [1] | binding [2] |
| --- | --- | --- |
| Arabidopsis Actin2 (from UniProt Q96292 1-377) | no binding |  |
| Arabidopsis Actin7 (from UniProt P53492 1-377) | no binding |  |
| Myosin XIK-YFP (from UniProt F4K5J1 1-1531) |  | binds |
